Measurements from PMC5760103, “The translesion DNA polymerases Pol ζ and Rev1 are activated independently of PCNA ubiquitination upon UV radiation in mutants of DNA polymerase δ” (PLoS Genetics, 2017).
Numbering of substitutions follows the chain as printed. Names and notes keep the numbering of the source. No constants are given. Whether binding was seen depends on the method and setting. Some entries that bind do so weakly or less than the wild type. For some of these results: Where a sequence is shown, tags or fusion partners need not be part of it.

By UniProt entry, the sequences of proteins in these tests, tags left out.
UniProt P15873: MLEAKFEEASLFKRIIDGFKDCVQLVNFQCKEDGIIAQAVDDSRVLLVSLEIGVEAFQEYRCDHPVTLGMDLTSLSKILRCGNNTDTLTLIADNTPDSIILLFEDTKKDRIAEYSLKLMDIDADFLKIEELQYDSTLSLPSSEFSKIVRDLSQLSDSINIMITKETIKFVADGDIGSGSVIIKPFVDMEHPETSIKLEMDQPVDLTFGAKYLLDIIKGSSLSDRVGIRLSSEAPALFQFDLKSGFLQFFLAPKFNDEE

T1: Pol31 fused to the lexA binding domain (pBTM116-Pol31) (S. cerevisiae) (UniProt P46957)
T1 sequence: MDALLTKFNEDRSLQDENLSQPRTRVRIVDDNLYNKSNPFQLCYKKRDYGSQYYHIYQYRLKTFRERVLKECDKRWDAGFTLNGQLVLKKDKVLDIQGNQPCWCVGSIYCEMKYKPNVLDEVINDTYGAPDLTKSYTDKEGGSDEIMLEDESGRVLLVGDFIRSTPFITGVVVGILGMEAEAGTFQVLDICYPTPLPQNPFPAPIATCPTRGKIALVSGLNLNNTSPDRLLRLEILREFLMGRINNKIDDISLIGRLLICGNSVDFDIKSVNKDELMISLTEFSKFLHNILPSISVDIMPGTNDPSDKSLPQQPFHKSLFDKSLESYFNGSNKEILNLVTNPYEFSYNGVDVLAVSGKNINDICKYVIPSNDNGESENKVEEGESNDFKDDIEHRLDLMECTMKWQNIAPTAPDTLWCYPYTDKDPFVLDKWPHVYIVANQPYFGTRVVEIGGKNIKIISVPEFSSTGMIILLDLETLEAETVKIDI

T2: Pol31-D304N fused to the lexA binding domain (pBTM116-Pol31-D304N) (S. cerevisiae) (UniProt P46957)
T2 sequence: T1 sequence with D304N

B1: Pol3 C-terminal amino acids 1032–1097 fused to the Gal4 activating domain (pACT2-Pol3-CTD) (domain or fragment, UniProt P15436 1032-1097)
chain: GELYIKALYDVRDLEEKYSRLWTQCQRCAGNLHSEVLCSNKNCDIFYMRVKVKKELQEKVEQLSKW
B2: Pol3-R1043G, C-terminal amino acids 1032–1097 fused to the Gal4 activating domain (pACT2-Pol3-R1043G) (domain or fragment, UniProt P15436 1032-1097)
chain: B1 chain with R12G

How the values were obtained:
[1] = molecular target: T1, Pol31 fused to the lexA binding domain (pBTM116-Pol31) (S. cerevisiae); test: two-hybrid; strain CTY10-5d; Pol31 on the lexA binding domain (pBTM116), Pol3 1032–1097 on the Gal4 activating domain (pACT2); β-galactosidase overlay plate assay at 22°C and 30°C
[2] = molecular target: T2, Pol31-D304N fused to the lexA binding domain (pBTM116-Pol31-D304N) (S. cerevisiae); test: as above
[3] = molecular target: Recombinant S. cerevisiae PCNA with an His-Tag (S. cerevisiae) (UniProt P15873); test: condition: 270 μM peptide in the syringe, 20–25 μM PCNA in the cell; ITC; VP-ITC; 20–25 μM PCNA in the cell, 270 μM peptide in the syringe; 30°C; buffer T (20 mM Tris pH 7.5, 50 mM NaCl, 20 mM β-mercaptoethanol); single set of independent binding sites model; both purified

Row | Binder | binding [1] | binding [2] | binding [3]
1 | B1 | binds | no binding | –
2 | B2 | binds weakly | – | –
3 | TGSQKGGLMSFIKKVEACKSC [pPol3 992–1012] | – | – | no binding
